Experimental data published in the supplement of paper PMC6411743.
± gives the standard deviation of the averaged measurements. Some of the results follow.

By UniProt entry, the sequences of proteins in these tests, tags left out. Where a name states a change or a piece, a line headed by the entry shows the natural chain unless it says otherwise.
UniProt Q9UBF2: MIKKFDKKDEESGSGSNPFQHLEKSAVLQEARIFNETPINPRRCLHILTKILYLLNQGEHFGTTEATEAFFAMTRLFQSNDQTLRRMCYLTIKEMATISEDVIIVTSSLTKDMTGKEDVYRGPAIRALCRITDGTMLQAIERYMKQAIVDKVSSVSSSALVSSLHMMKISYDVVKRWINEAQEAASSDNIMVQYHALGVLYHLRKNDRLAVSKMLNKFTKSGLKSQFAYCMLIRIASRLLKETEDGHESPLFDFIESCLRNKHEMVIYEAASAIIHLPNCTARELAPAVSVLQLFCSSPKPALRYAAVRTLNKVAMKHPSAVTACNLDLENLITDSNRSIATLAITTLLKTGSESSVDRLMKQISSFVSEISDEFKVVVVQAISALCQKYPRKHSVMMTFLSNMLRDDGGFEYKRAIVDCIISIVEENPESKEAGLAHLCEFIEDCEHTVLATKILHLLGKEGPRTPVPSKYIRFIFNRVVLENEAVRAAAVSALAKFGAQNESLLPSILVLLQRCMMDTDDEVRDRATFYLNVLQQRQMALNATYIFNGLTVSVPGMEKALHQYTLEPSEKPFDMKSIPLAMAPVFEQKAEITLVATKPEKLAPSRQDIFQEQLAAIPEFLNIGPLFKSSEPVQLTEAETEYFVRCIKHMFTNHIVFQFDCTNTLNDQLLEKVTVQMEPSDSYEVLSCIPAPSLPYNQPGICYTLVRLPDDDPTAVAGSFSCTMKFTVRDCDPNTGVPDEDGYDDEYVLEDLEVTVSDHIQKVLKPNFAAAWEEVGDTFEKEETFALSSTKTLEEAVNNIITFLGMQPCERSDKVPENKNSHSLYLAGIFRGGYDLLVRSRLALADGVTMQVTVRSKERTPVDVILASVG
UniProt Q9UBM7: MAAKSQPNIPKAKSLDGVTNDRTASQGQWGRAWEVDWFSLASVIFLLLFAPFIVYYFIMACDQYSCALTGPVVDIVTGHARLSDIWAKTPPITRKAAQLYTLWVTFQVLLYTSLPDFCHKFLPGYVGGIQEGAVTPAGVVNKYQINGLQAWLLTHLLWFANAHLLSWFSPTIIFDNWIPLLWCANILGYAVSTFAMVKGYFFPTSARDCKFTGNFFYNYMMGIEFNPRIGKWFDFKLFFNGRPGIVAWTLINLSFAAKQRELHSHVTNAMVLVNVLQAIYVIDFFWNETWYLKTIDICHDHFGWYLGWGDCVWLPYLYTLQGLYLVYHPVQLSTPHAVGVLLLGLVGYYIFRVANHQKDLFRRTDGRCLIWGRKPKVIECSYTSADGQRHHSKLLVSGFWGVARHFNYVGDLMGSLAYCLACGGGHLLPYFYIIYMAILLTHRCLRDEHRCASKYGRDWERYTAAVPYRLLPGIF
UniProt Q9UGR2: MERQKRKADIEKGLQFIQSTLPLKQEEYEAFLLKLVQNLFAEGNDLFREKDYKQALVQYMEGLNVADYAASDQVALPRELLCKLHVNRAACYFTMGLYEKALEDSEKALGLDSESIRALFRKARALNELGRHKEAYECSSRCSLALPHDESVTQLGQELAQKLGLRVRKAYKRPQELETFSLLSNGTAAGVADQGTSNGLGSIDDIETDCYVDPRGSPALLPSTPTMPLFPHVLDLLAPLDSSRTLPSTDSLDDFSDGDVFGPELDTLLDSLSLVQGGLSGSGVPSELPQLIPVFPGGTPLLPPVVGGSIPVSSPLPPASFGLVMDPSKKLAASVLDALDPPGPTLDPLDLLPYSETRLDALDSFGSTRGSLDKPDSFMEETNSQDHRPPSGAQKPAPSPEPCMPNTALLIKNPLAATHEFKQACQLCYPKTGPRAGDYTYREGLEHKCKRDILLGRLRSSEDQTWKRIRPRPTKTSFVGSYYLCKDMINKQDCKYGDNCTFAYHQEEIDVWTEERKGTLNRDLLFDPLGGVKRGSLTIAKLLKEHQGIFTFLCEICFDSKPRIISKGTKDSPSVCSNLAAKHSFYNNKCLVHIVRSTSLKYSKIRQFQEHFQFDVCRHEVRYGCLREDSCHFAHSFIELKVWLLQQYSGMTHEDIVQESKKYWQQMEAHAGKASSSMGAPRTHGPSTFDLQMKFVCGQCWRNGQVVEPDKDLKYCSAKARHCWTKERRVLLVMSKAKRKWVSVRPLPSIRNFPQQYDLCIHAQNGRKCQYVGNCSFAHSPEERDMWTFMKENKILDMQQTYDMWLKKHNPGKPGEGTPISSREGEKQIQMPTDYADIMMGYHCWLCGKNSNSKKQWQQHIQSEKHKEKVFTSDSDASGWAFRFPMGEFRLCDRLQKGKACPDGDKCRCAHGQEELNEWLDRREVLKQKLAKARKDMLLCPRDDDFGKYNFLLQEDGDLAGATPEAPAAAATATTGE
UniProt Q9UHV7: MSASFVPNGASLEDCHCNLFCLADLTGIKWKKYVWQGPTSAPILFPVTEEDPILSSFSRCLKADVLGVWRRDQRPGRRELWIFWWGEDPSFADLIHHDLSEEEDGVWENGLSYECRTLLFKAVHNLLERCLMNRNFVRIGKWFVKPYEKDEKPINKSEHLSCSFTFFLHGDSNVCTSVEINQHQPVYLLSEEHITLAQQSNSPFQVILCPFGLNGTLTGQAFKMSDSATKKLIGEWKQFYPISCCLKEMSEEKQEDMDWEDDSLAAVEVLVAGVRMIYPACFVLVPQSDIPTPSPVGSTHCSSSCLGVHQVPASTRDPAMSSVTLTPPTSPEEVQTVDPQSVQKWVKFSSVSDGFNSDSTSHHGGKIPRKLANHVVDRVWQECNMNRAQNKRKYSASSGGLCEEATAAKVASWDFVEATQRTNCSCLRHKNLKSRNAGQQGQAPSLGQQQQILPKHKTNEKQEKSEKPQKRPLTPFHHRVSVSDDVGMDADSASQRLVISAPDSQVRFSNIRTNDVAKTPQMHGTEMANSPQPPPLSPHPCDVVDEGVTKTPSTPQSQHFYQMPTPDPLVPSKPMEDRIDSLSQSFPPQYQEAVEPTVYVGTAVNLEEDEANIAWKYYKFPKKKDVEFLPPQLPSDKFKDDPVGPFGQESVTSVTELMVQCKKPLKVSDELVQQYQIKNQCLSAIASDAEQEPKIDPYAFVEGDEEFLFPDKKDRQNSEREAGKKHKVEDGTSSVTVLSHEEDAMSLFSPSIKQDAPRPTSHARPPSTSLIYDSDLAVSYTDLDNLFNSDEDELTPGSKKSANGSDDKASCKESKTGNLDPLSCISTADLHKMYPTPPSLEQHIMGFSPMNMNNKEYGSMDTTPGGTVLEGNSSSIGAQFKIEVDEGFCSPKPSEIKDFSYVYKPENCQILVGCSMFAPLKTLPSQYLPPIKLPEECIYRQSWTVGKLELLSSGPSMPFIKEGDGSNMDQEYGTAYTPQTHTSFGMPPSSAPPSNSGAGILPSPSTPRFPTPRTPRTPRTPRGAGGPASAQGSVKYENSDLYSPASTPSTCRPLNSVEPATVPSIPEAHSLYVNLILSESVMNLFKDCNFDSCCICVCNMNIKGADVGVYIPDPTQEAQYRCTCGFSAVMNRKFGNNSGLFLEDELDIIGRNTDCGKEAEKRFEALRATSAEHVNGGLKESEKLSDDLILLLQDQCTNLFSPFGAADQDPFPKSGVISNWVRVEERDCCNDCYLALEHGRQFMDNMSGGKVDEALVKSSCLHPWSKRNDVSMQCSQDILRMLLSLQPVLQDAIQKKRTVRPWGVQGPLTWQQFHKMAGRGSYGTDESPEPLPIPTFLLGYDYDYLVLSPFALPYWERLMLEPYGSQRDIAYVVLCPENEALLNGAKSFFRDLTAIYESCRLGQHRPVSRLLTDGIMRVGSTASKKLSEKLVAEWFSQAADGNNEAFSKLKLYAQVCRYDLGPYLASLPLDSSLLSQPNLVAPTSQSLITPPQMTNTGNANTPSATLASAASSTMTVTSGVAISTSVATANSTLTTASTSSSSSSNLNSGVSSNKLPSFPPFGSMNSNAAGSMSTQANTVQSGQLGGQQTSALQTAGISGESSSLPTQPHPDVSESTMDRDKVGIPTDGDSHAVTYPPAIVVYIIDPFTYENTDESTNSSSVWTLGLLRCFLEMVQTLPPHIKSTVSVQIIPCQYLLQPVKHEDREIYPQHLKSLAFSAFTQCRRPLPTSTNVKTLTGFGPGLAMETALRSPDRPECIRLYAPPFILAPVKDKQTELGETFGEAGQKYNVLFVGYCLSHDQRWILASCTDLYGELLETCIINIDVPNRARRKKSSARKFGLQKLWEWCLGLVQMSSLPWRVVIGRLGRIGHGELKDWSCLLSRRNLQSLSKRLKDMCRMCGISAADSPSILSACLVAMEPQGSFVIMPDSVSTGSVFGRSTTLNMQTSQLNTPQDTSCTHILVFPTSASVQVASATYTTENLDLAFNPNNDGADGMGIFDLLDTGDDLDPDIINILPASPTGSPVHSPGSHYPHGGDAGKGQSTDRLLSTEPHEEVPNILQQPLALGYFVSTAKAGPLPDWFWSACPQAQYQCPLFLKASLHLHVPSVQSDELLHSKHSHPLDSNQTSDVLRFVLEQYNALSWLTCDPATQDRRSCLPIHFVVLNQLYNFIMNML
UniProt Q9NX05: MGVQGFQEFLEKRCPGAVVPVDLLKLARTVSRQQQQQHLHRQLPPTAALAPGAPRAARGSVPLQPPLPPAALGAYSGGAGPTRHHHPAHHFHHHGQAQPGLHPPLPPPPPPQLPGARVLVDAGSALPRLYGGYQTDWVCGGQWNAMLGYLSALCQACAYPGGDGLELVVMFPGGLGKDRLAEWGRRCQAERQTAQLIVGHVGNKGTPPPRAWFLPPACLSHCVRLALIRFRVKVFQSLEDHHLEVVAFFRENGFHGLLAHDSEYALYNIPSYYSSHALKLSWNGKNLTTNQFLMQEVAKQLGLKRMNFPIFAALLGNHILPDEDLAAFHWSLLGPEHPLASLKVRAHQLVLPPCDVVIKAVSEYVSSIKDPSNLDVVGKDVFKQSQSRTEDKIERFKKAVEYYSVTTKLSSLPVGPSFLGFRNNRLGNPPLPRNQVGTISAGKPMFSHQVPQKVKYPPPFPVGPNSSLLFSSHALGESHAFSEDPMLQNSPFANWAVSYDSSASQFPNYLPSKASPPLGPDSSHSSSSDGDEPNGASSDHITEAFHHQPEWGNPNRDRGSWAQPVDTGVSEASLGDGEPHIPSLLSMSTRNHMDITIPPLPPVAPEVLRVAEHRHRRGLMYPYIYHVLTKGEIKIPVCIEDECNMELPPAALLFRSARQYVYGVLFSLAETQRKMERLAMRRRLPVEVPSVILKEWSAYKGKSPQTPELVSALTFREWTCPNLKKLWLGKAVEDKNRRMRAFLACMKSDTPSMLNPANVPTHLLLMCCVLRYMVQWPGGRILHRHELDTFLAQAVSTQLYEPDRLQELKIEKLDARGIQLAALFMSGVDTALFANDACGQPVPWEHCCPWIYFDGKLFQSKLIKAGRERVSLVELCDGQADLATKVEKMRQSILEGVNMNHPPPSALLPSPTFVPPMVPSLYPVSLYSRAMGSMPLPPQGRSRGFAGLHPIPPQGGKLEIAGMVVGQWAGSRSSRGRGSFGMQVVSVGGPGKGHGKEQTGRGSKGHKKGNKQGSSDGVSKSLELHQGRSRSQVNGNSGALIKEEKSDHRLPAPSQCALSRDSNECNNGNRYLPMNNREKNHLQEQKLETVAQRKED

Compound: Nc1nc2c(ncn2[C@@H]2O[C@H](COP(=O)(O)OP(=O)(O)OP(=O)(O)O)[C@@H](O)[C@H]2O)c(=O)[nH]1 [guanosine triphosphate]
Assay: NP40-soluble protein abundance relative to vehicle (solubility fold change) (ratio); higher = more soluble protein in presence of GTP
Experimental: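 Solubility proteome profiling in Jurkat crude lysate. Lysate was treated with Mg-GTP (0.1-10 mM) for 10 min at room temperature and 3 min at 37 °C, then solubilised with 0.8% NP40 and benzonase, followed by ultracentrifugation. Proteins were quantified by TMT10 LC-MS/MS; the value is the NP40-soluble abundance relative to the NP40-processed vehicle, from 3 independent experiments.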

Question: Which NP40-soluble protein abundance (concentration: 0.1mM) does the source give for COPG2 (UniProt Q9UBF2) here?
Answer: 1.062 ± 0.0092

Question: And the NP40-soluble protein abundance (concentration: 0.5mM)?
Answer: 1.07 ± 0.055

Question: What about the NP40-soluble protein abundance (concentration: 1mM) of the same target?
Answer: 1 ± 0.032

Question: What about the NP40-soluble protein abundance (concentration: 2mM) of the same target?
Answer: 1.08 ± 0.088

Question: What about the NP40-soluble protein abundance (concentration: 4mM) of the same target?
Answer: 1.08 ± 0.075

Question: And the NP40-soluble protein abundance (concentration: 6mM)?
Answer: 1.04 ± 0.094

Question: And the NP40-soluble protein abundance (concentration: 8mM)?
Answer: 1.03 ± 0.072

Question: And the NP40-soluble protein abundance (concentration: 10mM)?
Answer: 1.02 ± 0.043

Question: For DHCR7 (UniProt Q9UBM7), which NP40-soluble protein abundance (concentration: 0.1mM) is on record?
Answer: 1.1 ± 0.1

Question: And the NP40-soluble protein abundance (concentration: 0.5mM)?
Answer: 1.05 ± 0.11

Question: And the NP40-soluble protein abundance (concentration: 1mM)?
Answer: 0.98 ± 0.069

Question: What about the NP40-soluble protein abundance (concentration: 2mM) of the same target?
Answer: 0.982 ± 0.091

Question: What about the NP40-soluble protein abundance (concentration: 4mM) of the same target?
Answer: 0.999 ± 0.11

Question: What about the NP40-soluble protein abundance (concentration: 6mM) of the same target?
Answer: 0.959 ± 0.079

Question: And the NP40-soluble protein abundance (concentration: 8mM)?
Answer: 0.991 ± 0.033

Question: And the NP40-soluble protein abundance (concentration: 10mM)?
Answer: 0.968 ± 0.052

Question: How did the NP40-soluble protein abundance (concentration: 0.1mM) turn out when UniProt Q9UGR2 and related entries was run?
Answer: 1.08 ± 0.091

Question: What about the NP40-soluble protein abundance (concentration: 0.5mM) of the same target?
Answer: 1.1 ± 0.047

Question: What about the NP40-soluble protein abundance (concentration: 1mM) of the same target?
Answer: 1.12 ± 0.05

Question: What about the NP40-soluble protein abundance (concentration: 2mM) of the same target?
Answer: 1.08 ± 0.023

Question: What about the NP40-soluble protein abundance (concentration: 4mM) of the same target?
Answer: 1.13 ± 0.032

Question: What about the NP40-soluble protein abundance (concentration: 6mM) of the same target?
Answer: 1.08 ± 0.085

Question: And the NP40-soluble protein abundance (concentration: 8mM)?
Answer: 1.15 ± 0.045

Question: And the NP40-soluble protein abundance (concentration: 10mM)?
Answer: 1.1 ± 0.018

Question: For MED13 (UniProt Q9UHV7), which NP40-soluble protein abundance (concentration: 0.1mM) is on record?
Answer: 1.02 ± 0.059

Question: And the NP40-soluble protein abundance (concentration: 0.5mM)?
Answer: 0.995 ± 0.14

Question: And the NP40-soluble protein abundance (concentration: 1mM)?
Answer: 1.04 ± 0.091

Question: What about the NP40-soluble protein abundance (concentration: 2mM) of the same target?
Answer: 1.03 ± 0.067

Question: What about the NP40-soluble protein abundance (concentration: 4mM) of the same target?
Answer: 1.09 ± 0.085

Question: And the NP40-soluble protein abundance (concentration: 6mM)?
Answer: 1.08 ± 0.11

Question: And the NP40-soluble protein abundance (concentration: 8mM)?
Answer: 1.09 ± 0.1

Question: What about the NP40-soluble protein abundance (concentration: 10mM) of the same target?
Answer: 1.09 ± 0.12

Question: How did the NP40-soluble protein abundance (concentration: 0.1mM) turn out when FAM120C (UniProt Q9NX05) was run?
Answer: 1 ± 0.021

Question: And the NP40-soluble protein abundance (concentration: 0.5mM)?
Answer: 1.04 ± 0.017

Question: What about the NP40-soluble protein abundance (concentration: 1mM) of the same target?
Answer: 1.04 ± 0.036

Question: And the NP40-soluble protein abundance (concentration: 2mM)?
Answer: 1.09 ± 0.065

Question: And the NP40-soluble protein abundance (concentration: 4mM)?
Answer: 1.12 ± 0.068

Question: And the NP40-soluble protein abundance (concentration: 6mM)?
Answer: 1.18 ± 0.077

Question: What about the NP40-soluble protein abundance (concentration: 8mM) of the same target?
Answer: 1.25 ± 0.08

Question: What about the NP40-soluble protein abundance (concentration: 10mM) of the same target?
Answer: 1.25 ± 0.061
